Laboratory results published in paper PMC4507757.
These are yes or no findings as the source states them, for the method shown. For some of these results: In cells and extracts the contact can be indirect. Some entries that bind do so weakly or less than the wild type.

By UniProt entry, the sequences of proteins in these tests, tags left out. Residues count along the entry.
UniProt A0A0P0XCU3, residues 50-1875: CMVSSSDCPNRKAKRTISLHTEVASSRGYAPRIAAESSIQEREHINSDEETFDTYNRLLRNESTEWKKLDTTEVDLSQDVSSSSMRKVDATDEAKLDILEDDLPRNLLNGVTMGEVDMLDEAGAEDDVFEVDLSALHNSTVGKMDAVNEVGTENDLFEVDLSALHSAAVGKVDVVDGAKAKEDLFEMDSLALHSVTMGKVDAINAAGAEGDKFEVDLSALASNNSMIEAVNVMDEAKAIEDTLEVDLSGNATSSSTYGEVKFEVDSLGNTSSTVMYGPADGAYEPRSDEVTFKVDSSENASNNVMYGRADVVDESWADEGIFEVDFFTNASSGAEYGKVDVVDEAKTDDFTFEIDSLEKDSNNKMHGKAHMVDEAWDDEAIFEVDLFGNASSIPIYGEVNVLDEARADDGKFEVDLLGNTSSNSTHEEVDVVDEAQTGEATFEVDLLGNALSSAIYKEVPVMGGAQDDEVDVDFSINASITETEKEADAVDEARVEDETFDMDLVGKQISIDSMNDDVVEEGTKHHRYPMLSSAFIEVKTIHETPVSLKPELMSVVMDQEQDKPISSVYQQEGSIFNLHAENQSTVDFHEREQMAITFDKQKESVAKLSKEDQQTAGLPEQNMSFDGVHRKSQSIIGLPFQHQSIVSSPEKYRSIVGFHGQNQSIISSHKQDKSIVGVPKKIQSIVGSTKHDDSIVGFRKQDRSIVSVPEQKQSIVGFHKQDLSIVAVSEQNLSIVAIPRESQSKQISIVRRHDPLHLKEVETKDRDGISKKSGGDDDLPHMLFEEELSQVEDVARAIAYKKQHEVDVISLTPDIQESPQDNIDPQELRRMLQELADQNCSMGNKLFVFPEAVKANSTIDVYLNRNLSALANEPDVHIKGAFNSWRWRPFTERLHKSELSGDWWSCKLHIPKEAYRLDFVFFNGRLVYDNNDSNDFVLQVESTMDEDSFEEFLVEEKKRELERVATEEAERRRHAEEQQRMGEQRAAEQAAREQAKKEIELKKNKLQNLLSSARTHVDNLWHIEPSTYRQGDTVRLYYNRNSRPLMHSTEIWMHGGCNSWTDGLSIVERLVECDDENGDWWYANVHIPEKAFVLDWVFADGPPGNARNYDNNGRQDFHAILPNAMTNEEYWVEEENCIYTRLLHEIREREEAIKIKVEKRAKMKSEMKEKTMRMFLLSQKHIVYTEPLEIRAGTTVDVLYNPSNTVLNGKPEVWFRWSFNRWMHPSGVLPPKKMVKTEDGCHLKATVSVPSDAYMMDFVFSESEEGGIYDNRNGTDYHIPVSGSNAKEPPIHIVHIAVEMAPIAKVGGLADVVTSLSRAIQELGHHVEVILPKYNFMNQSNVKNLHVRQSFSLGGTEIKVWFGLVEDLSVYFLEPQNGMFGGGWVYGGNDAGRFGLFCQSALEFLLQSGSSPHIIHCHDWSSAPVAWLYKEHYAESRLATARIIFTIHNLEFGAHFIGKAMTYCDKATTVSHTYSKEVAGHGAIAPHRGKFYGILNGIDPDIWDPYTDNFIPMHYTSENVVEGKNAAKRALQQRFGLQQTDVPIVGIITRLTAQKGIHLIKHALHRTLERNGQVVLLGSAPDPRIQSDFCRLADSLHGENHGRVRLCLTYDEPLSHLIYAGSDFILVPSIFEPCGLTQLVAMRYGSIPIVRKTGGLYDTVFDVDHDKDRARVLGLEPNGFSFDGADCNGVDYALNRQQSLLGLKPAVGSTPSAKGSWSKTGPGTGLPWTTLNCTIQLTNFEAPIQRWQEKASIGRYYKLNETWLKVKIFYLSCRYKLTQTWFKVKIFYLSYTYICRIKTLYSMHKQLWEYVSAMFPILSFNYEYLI

T1: starch branching enzyme I (BEI) (rice, Oryza sativa L. japonica cv. Nipponbare (endogenous in developing endosperm)) (UniProt Q01401)
T1 sequence: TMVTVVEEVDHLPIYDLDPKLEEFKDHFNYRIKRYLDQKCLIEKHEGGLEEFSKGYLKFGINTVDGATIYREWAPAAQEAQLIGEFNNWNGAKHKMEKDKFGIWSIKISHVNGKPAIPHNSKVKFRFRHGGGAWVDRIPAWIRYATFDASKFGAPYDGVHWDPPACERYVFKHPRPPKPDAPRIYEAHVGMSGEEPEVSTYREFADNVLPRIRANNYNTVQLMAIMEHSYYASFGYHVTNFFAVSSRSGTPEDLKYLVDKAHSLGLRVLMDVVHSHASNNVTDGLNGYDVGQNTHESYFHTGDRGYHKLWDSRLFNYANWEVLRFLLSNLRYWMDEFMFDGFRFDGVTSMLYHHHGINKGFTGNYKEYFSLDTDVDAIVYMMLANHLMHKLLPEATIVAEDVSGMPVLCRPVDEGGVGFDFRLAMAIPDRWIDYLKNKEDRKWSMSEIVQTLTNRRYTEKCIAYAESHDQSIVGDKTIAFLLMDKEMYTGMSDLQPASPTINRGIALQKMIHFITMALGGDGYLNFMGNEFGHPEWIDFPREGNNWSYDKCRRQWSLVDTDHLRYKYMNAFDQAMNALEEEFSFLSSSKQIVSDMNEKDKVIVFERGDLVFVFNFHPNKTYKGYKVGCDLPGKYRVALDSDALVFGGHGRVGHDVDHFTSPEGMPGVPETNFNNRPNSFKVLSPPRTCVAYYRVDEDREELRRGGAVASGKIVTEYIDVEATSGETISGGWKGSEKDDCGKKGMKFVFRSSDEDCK

T2: starch synthase IIa (SSIIa) (rice, Oryza sativa L. japonica cv. Nipponbare (endogenous in developing endosperm)) (UniProt Q0DDE3)
T2 sequence: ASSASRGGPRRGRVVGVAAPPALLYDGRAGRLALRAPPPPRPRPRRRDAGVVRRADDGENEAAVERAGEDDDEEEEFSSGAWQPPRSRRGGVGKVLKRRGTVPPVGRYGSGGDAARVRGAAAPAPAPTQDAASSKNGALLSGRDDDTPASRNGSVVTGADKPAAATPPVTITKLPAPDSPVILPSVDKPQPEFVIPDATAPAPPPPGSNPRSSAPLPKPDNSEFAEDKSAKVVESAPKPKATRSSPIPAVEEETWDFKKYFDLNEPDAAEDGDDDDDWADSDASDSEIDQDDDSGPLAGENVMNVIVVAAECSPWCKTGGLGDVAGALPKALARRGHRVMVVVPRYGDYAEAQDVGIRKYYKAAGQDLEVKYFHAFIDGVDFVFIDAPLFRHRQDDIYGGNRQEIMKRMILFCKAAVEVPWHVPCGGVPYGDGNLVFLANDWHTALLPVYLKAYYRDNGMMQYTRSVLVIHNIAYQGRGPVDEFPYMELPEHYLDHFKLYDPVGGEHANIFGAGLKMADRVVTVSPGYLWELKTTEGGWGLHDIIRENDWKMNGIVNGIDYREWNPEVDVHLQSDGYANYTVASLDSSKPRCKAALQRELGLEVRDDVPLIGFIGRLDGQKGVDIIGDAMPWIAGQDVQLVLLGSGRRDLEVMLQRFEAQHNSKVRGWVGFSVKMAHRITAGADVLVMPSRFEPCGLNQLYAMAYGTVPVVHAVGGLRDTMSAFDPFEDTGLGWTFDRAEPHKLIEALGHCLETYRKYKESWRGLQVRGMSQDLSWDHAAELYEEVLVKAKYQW

T3: starch synthase I (SSI) (rice, Oryza sativa L. japonica cv. Nipponbare (endogenous in developing endosperm)) (UniProt Q0DEC8)
T3 sequence: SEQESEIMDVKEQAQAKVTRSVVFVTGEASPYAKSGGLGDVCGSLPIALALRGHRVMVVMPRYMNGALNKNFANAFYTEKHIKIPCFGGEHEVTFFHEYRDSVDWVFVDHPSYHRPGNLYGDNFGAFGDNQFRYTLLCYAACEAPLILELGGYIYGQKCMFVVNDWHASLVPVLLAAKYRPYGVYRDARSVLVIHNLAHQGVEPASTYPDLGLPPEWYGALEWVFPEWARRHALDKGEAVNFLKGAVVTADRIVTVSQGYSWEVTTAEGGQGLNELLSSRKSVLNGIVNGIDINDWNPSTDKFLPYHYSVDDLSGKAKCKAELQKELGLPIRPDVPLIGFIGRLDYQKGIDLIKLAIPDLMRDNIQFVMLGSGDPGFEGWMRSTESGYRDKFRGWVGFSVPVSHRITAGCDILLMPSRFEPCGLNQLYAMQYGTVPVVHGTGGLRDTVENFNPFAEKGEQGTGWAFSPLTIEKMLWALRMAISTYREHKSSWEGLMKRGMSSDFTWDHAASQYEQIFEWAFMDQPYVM

B1: starch synthase I (SSI) (enzyme, UniProt Q0DEC8 114-641)
chain: T3 sequence
B2: starch branching enzyme I (BEI) (enzyme, UniProt Q01401 65-820)
chain: T1 sequence
B3: starch synthase IIa (SSIIa) (enzyme, UniProt Q0DDE3 17-810)
chain: T2 sequence
B4: isoamylase 1 (ISA1) (enzyme, UniProt D0TZF0 55-803)
chain: SVASAVEVGVGEDEEEGVEEEEEEVEAVVMPERYALGGACRVLAGMPAPLGATALDGGVNFAVYSAGASAASLCLFTPDDLEADEVTEEVPLDPLFNRTGNVWHVFIEGELHNMLYGYRFDGMFAPHCGQYFDVSNVVVDPYAKAVISRGEYGVPGPGGDCWPQMAGMIPLPYSTFDWQGDLPLRYPQKDLVIYEMHLRGFTKHSSSNVEHPGTYIGAISKLDYLKELGVNCVELMPCHEFNELEYFSCSSKMNFWGYSTINFFSPMIRYSSGGIRNCGRDAINEFKTFVREAHKRGIEVIMDVVFNHTAEGNEKGPILSFRGIDNSTYYMLAPKGEFYNYSGCGNTFNCNHPVVREFIVDCLRYWVTEMHVDGFRFDLASIMTRGCSLWDPVNVYGSPVEGDMTTTGTPLATPPLIDMISNDPILGDVKLIAEAWDAGGLYQVGQFPHWKIWSEWNGKYRDIVRQFIKGTDGFAGGFAECLCGSPHLYQAGGRKPWHSINFVCAHDGFTLADLVTYNKKYNSSNGEDNRDGENHNLSWNCGEEGEFAGLSVKRLRKRQMRNFFVSLMVSQGVPMFYMGDEYGHTKGGNNNTYCHDHYVNYFRWDKKEESSDLQRFCSLMTKFRKQCESLGLADFPTAQRLHWHGHQPGKPDWSETSRFVAFSTKDETKGEIYVAFNASHLPAVVGLPERPGYRWEPLVDTGKPAPYDFLTDDLPDRAHAVHLFSHFLNSNLYPMLSYSSIILELQPDD

What was measured:
[1] = molecular target: T1, starch branching enzyme I (BEI) (rice, Oryza sativa L. japonica cv. Nipponbare (endogenous in developing endosperm)); test: co-IP; soluble extract of developing rice endosperm mixed with isozyme-specific antibodies (pre-immune serum as control) 1.5 h at 4 °C, protein A-Sepharose 1 h at 4 °C; 10 mM HEPES-KOH pH 7.5, 100 mM NaCl, 1 mM DTT; eight washes; bound proteins analysed by western blotting
[2] = molecular target: T2, starch synthase IIa (SSIIa) (rice, Oryza sativa L. japonica cv. Nipponbare (endogenous in developing endosperm)); test: as above
[3] = molecular target: T3, starch synthase I (SSI) (rice, Oryza sativa L. japonica cv. Nipponbare (endogenous in developing endosperm)); test: as above
[4] = molecular target: starch synthase IIIa (SSIIIa) (rice, Oryza sativa L. japonica cv. Nipponbare (endogenous in developing endosperm)); test: as above
[5] = molecular target: isoamylase 1 (ISA1) (rice, Oryza sativa L. japonica cv. Nipponbare (endogenous in developing endosperm)) (UniProt D0TZF0); test: SEC; gel permeation chromatography of soluble developing rice endosperm extract on Superdex 200 10/300 at 4 °C; 10 mM HEPES-KOH pH 7.5, 100 mM NaCl; fractions analysed by western blotting and native-PAGE zymograms

Molecule	binding [1]	binding [4]	other results
starch synthase IIIa (SSIIIa) (from UniProt A0A0P0XCU3 50-1875) (enzyme)	binds weakly	–	binding [2]: binds weakly
B1	binds weakly	–	–
B2	–	binds weakly	binding [3]: binds weakly
B3	–	binds weakly	–
B4	–	–	binding [5]: binds
